PubChem BioAssay AID1259254 – NCATS, 2017

Assay: 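Finding genes that stop cells copying their DNA twice in one cycle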 (primary screen)
Cells: human HCT116 colorectal cancer cells
Reagents: single siRNA against human genes
Duration: 3 days
Detection: 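Nuclei stained with Hoechst and imaged; cell-cycle phase assigned by DNA content; G2 share scaled per plate, non-targeting siRNA 0%, GMNN siRNA 100%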
Reading the numbers: G2 robust z-score and G2 cells, % of GMNN control: higher = more G2 cells, more excess DNA replication
Rule for the call: 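An siRNA counts as active if its G2 robust z-score lies at least 5 MADs above the screen median; here such calls match roughly 38% of GMNN control or more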
Here is an unselected part of about 59,000 reagents. Of all reagents, about 1,550 (2.6%) are marked active. 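G2 share is only a proxy for re-replication; each gene was hit by three separate siRNAs, and active genes were retested.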 Unmarked entries are inactive. The numbers tell different reagents against one gene apart. Not all columns of the deposit are shown. Not stated in the record: the amount of reagent.

For AOAH (acyloxyacyl hydrolase) #1, what does the deposit list?
G2 robust z-score: 4.37; G2 cells, % of GMNN control: 33.7

What did the screen give for AOAH (acyloxyacyl hydrolase) #2?
G2 robust z-score: 0.477; G2 cells, % of GMNN control: 6.32

How did the screen score AOAH (acyloxyacyl hydrolase) #3?
G2 robust z-score: -1.03; G2 cells, % of GMNN control: -4.27

For AGXT (alanine--glyoxylate aminotransferase) #1, what does the deposit list?
G2 robust z-score: -0.738; G2 cells, % of GMNN control: -2.22

What did the screen give for AGXT (alanine--glyoxylate aminotransferase) #2?
G2 robust z-score: 2.3; G2 cells, % of GMNN control: 19.1

For AGXT (alanine--glyoxylate aminotransferase) #3, what does the deposit list?
G2 robust z-score: 0.762; G2 cells, % of GMNN control: 8.33

How did the screen score C2orf42 (chromosome 2 open reading frame 42) #1?
G2 robust z-score: 1.47; G2 cells, % of GMNN control: 13.3

Which result is listed for C2orf42 (chromosome 2 open reading frame 42) #2?
G2 robust z-score: -0.0672; G2 cells, % of GMNN control: 2.49

What did the screen give for C2orf42 (chromosome 2 open reading frame 42) #3?
G2 robust z-score: -0.854; G2 cells, % of GMNN control: -3.04

With ARL2BPP3 (ARF like GTPase 2 binding protein pseudogene 3) #1, what was measured?
G2 robust z-score: 0.639; G2 cells, % of GMNN control: 7.47

What is on record for ARL2BPP3 (ARF like GTPase 2 binding protein pseudogene 3) #2?
G2 robust z-score: -0.518; G2 cells, % of GMNN control: -0.68

For ARL2BPP3 (ARF like GTPase 2 binding protein pseudogene 3) #3, what does the deposit list?
G2 robust z-score: -0.327; G2 cells, % of GMNN control: 0.668

3 entries already listed, arranged by “G2 cells, % of GMNN control”, ascending:
AOAH (acyloxyacyl hydrolase) #3 | G2 robust z-score = -1.03; G2 cells, % of GMNN control = -4.27
AGXT (alanine--glyoxylate aminotransferase) #1 | G2 robust z-score = -0.738; G2 cells, % of GMNN control = -2.22
AOAH (acyloxyacyl hydrolase) #2 | G2 robust z-score = 0.477; G2 cells, % of GMNN control = 6.32

The list goes on.
For ELAVL1 (ELAV like RNA binding protein 1) #1, how do the results read?
G2 robust z-score: 0.33; G2 cells, % of GMNN control: 5.29

With ELAVL1 (ELAV like RNA binding protein 1) #2, what was measured?
G2 robust z-score: -1.21; G2 cells, % of GMNN control: -5.55

Which result is listed for ELAVL1 (ELAV like RNA binding protein 1) #3?
G2 robust z-score: -0.729; G2 cells, % of GMNN control: -2.16

What is on record for EYS (EGF-like photoreceptor maintenance factor) #1?
G2 robust z-score: 4.06; G2 cells, % of GMNN control: 31.5

With EYS (EGF-like photoreceptor maintenance factor) #2, what does the deposit list?
G2 robust z-score: 0.667; G2 cells, % of GMNN control: 7.66

Which result is listed for EYS (EGF-like photoreceptor maintenance factor) #3?
G2 robust z-score: -0.504; G2 cells, % of GMNN control: -0.582

What is on record for EYS (EGF-like photoreceptor maintenance factor) #4?
G2 robust z-score: -0.209; G2 cells, % of GMNN control: 1.5

For EYS (EGF-like photoreceptor maintenance factor) #5, what was measured?
G2 robust z-score: -0.132; G2 cells, % of GMNN control: 2.04

For EYS (EGF-like photoreceptor maintenance factor) #6, what does the deposit list?
G2 robust z-score: 1.84; G2 cells, % of GMNN control: 15.9

With EYS (EGF-like photoreceptor maintenance factor) #7, what does the deposit list?
G2 robust z-score: -0.019; G2 cells, % of GMNN control: 2.83

Which result is listed for EYS (EGF-like photoreceptor maintenance factor) #8?
G2 robust z-score: 0.177; G2 cells, % of GMNN control: 4.22

Which result is listed for EYS (EGF-like photoreceptor maintenance factor) #9?
G2 robust z-score: -0.469; G2 cells, % of GMNN control: -0.331
